PubChem BioAssay AID743454 – Peter MacCallum Cancer Centre | 2014
Test: 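Search for knock-downs that restore vorinostat killing in resistant colon cancer cells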 (primary screen). Cells: human HCT116-VR colon cancer cells, selected for vorinostat resistance. Knock-down reagent: siRNA pool against human genes, 40 nM siRNA pool. Time to read-out: vorinostat for 24 h, read-out about 72 h after transfection. Treatment: vorinostat at 2.5 µM final. Measurement: 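Two measures, CellTiter-Fluor viability and luminescent caspase 3/7 activity, each as fold change against same-plate mock wells, mean of duplicates, then screen-wide robust z-score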. Direction: viability robust z-score: higher = more viable cells than screen typical; caspase robust z-score: higher = more caspase 3/7 activity than screen typical. Hit rule: 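Hits are knock-downs in viability class RV1/RV2 or caspase class CA1/CA2, excluding ones that killed cells in the no-drug cell-count arm; hits then retested with single siRNAs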.
In all, the deposit lists about 18,000 reagents; below is a part drawn at random. 450 of them (2.5%) count as active. 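Single biological run; no consistent viability z cut-off exists, so the class columns, not z-scores, define the calls.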 A number with no mark means an inactive call.

| gene symbol | PubChem SID | viability hit class | caspase hit class | viability robust z-score | caspase robust z-score |
| --- | --- | --- | --- | --- | --- |
| FEM1C | SID134322939 | no change | no change | -0.48 | 1.9 |
| EPHX1 | SID135621562 | no change | no change | 0.12 | 2.11 |
| MT2A | SID134322203 | no change | no change | -0.24 | -0.35 |
| ACMSD | SID152149254 | no change | no change | 0.66 | -0.07 |
| KRTAP17-1 | SID134317743 | no change | no change | -0.88 | -0.25 |
| MFAP2 | SID134316047 | no change | no change | 1.11 | 1.97 |
| CD247 | SID134310343 | no change | no change | 0.32 | -0.94 |
| NDUFA8 | SID134316763 | no change | no change | -0.62 | 2.93 |
| DAPK3 | SID56478935 | no change | no change | 1.06 | 1.34 |
| MTMR12 | SID152149104 | no change | no change | 0.02 | -0.92 |
| RHPN2 | SID134320774 | no change | no change | 0.84 | -0.66 |
| WFDC13 | SID135623357 | no change | no change | -1.21 | 4.54 |
| DENND4A | SID152152535 | no change | no change | 1.16 | -0.5 |
| SH3BP4 | SID152146865 | no change | no change | 0.06 | -0.44 |
| BACH1 | SID135621441 | no change | no change | -0.66 | -0.54 |
| MECOM | SID134323675 | no change | no change | -0.18 | 0.02 |
| MECOM | SID135621208 | no change | no change | 0.86 | -0.94 |
| ANKRD54 | SID134320570 | no change | no change | -0.44 | -0.04 |
| SFXN4 | SID152154671 | no change | no change | -0.58 | 2.44 |
| CPD | SID134310735 | no change | no change | -0.18 | 3.38 |
| PATJ | SID152147651 | no change | no change | 1.81 | -0.27 |
| MOB3A | SID134319346 | no change | no change | -2.56 | 5.67 |
| CRLF1 | SID134312801 | no change | no change | -0.47 | 3.58 |
| DIABLO | SID134310478 | no change | no change | -0.03 | -0.08 |
| PDLIM3 | SID134323958 | no change | no change | -0.57 | 0.29 |
| KARS1 | SID134316409 | no change | no change | -2.29 | 2.42 |
| MSH6 | SID152149194 | no change | no change | -0.32 | 1.56 |
| SMG8 | SID134320470 | no change | no change | -0.08 | -0.36 |
| ASB9 | SID134318461 | no change | no change | -1 | 1.38 |
| TMEM179B | SID152155100 | no change | no change | 0.55 | -0.92 |
| DNAH7 | SID152148004 | no change | no change | 0.31 | 0.18 |
| CDC20 | SID135620640 | no change | no change | -2.04 | 0.24 |
| ARPC1B | SID134316379 | no change | no change | 0.26 | 1.56 |
| CNEP1R1 | SID152148190 | no change | no change | -0.2 | -0.49 |
| CHID1 | SID134319805 | no change | no change | 0.16 | -0.34 |
| PCDH8 | SID134315694 | no change | no change | 1.25 | -0.32 |
| KASH5 | SID135623016 | no change | no change | 0.22 | 1.29 |
| IRF7 | SID152151875 | no change | no change | 0.15 | 0.48 |
| MPV17 | SID152153029 | no change | no change | -1.79 | 0.94 |
| TNFSF15 | SID134321517 | no change | no change | 0.01 | 0.27 |
| TPP2 | SID134311474 | no change | no change | -0.15 | -0.9 |
| ADGRE1 | SID134310932 | no change | no change | 0.68 | -0.36 |
| AKAP1 | SID152147993 | no change | no change | 1.15 | 0.49 |
| CRBN | SID152148892 | no change | no change | -0.69 | 2.08 |
| SIKE1 | SID135622767 | no change | no change | -0.24 | 0.8 |
| POTEH | SID152152642 | no change | no change | -1.25 | 0.97 |
| SLC22A1 | SID135621371 | no change | no change | -0.4 | -0.26 |
| RIN1 | SID135623866 | no change | no change | -1.34 | -0.65 |
| ADAMDEC1 | SID134311189 | no change | no change | -0.03 | 0.3 |
| GYG2 | SID135621228 | no change | no change | 0.3 | -0.77 |
| NOTCH1 | SID152154581 | no change | no change | 0.8 | 0.46 |
| A1BG | SID152150373 | no change | no change | -0.03 | 3.54 |
| TRIM26 | SID152151511 | no change | no change | -0.68 | 1.08 |
| STXBP3 | SID135623791 | no change | no change | 0.82 | 0.26 |
| CDC34 | SID56478590 | no change | no change | -1.22 | 3.32 |
| NEUROD6 | SID134313566 | no change | no change | -1.25 | 2.51 |
| SMG9 | SID135624009 | no change | no change | 0.81 | -0.03 |

Only “caspase robust z-score” (8 entries from above):
MOB3A [SID134319346] = 5.67
CRLF1 [SID134312801] = 3.58
DIABLO [SID134310478] = -0.08
PDLIM3 [SID134323958] = 0.29
KARS1 [SID134316409] = 2.42
MSH6 [SID152149194] = 1.56
SMG8 [SID134320470] = -0.36
ASB9 [SID134318461] = 1.38
